# According to patent US9260507B2, “Peptide promoting cell adhesion and migration” (Symatese, priority 2009, dated 2016):
# Part of at least one peptide drawing is inferred or uncertain, most often the ends. Some results were stated once for a whole list of compounds, not compound by compound. Ends that are not written are not given here.
# Key:
# superficial skin wounds = assay: Healing in vivo: epithelialisation of superficial skin wounds in pigs; conditions: pig
# [1] = test system: normal human keratinocytes; assay: Migration of NHKs by real-time videomicroscopy on living cells; format: cell-based; conditions: 10 μg/ml in culture medium, recorded 5 hours
# normal human fibroblasts = assay: Cell adhesion test (crystal violet colorimetric), normal human fibroblasts; format: cell-based
# Description: (A) Showing the binding of syndecan-1 to the peptide KKLRIKSKEK (SEQ ID NO: 1). A lysate of normal human fibroblasts and a lysate of normal human keratinocytes were prepared as described in the Materials and Methods section and 2 mg of each lysate were incubated with neutravidin beads not coated or coated with the biotinylated peptide KKLRIKSKEK (SEQ ID NO: 1). A positive control was performed with the keratinocyte lysate to compare the size and quantity of syndecan-1 in the 2 cell types. After washing, the material bound to the beads was digested with a mixture of heparitinase I and chondroitinase ABC to release the protein part of the syndecan-1 from the glycosaminoglycans. The samples were then analysed by SDS PAGE electrophoresis in an 8% acrylamide gel under non-reducing conditions and by immunoblotting with polyclonal anti-syndecan antibody H174. The position of molecular weight markers is shown on the left. (B, C) Cell adhesion of normal human fibroblasts to the peptide KKLRIKSKEK (SEQ ID NO: 1) and to the LG4/5 protein. In one case (B), 5 μg of peptide KKLRIKSKEK (SEQ ID NO: 1) and 1 μg of protein LG4/5 were immobilised on a 96-well plate and in the other (C), the peptide KKLRIKSKEK (SEQ ID NO: 1) was immobilised at the concentrations indicated in the abscissa. 6·10^4 dermal fibroblasts were put into each well and the plates were incubated at 37° C. for 1 hour. After washing, the adherent cells were fixed and cell adhesion was measured as described in the methodology section.
# Freshly isolated normal human fibroblasts were used. They were obtained from the foreskin biopsies used for obtaining the keratinocytes. The culture medium used was DMEM supplemented with 10% foetal calf serum and 2 mM glutamine. When the dermis had been separated from the epidermis, the fragments of dermis were placed for several days in petri dishes in the presence of DMEM supplemented with 10% foetal calf serum and 2 mM glutamine at 37° C. in a CO2 incubator (5% CO2, 95% air and 98% humidity). The medium was changed every two days. […]
# HT1080 cells = assay: Inhibition of cell adhesion by competition (HT1080 cells on LG4/5 and LN332 substrates); format: cell-based, Human; conditions: competitor in solution: peptide 20 μg/ml, LG4/5 protein 10 μg/ml, anti-LG4/5 antibody 10 μg/ml applied to substrate
# Description: The LG4/5 (white bars) and LN332 (grey bars) proteins (1 μg/well) were adsorbed in 96-well plates. (A) Effect of the polyclonal anti-LG4/5 antibody on cell adhesion to the LG4/5 and LN332 protein. After saturating the wells, a solution of anti-LG4/5 antibody (10 μg/ml) was applied for one hour before performing the adhesion test with HT1080 cells (6·10^4 cells/well). (B, C) Effect of the LG4/5 protein and the peptide KKLRIKSKEK (SEQ ID NO: 1) in solution on syndecan-1 dependent adhesion to the LG4/5 fragment. The HT1080 cells were detached from the dishes and put into the wells (6·10^4 cells/well) as they were or in the presence of the LG4/5 protein (10 μg/ml) or the peptide KKLRIKSKEK (SEQ ID NO: 1) (20 μg/ml) as indicated on the graph. (A, B, C) The plates were incubated at 37° C. for 1 hour. After washing, the adherent cells were fixed and cell adhesion was measured as described in the methodology section. Cell adhesion in the presence of antibodies or competitor proteins was shown as a percentage of the cell adhesion obtained on the same substrate without competitor.
# 96-well plates were coated with the amounts indicated of peptide KKLRIKSKEK (SEQ ID NO: 1) or laminin 332 by adsorption at +4° C. for 16 to 18 hours. As before, the wells were saturated with a solution of 1% PBS-BSA for one hour. […]
# [2] = test system: normal human keratinocytes; assay: Cell adhesion test (crystal violet colorimetric) on immobilised peptide, normal human keratinocytes; format: cell-based
sequence,measurement,setting,value
KKLRIKSKEK [KKLRIKSKEK],Percentage of re-epithelialisation of the wound,"superficial skin wounds; 0.9 mm deep wounds, peptide 20 μg/ml or 50 μg/ml topical, day 7",96%
same,Macroscopic observation of the wounds after total closure,superficial skin wounds; day 11,"uniform, healthy skin tissue with identical properties to the tissue surrounding the repaired area"
same,Distance (from the origin) of keratinocyte displacement,[1],≤ 150 μm
same,Adhesion of human dermal fibroblasts to the immobilised substrate,"normal human fibroblasts; 5 μg peptide or 1 μg LG4/5 protein immobilised, FIG. 14B",adhere
same,Mean quantity of peptide placed in the wells for immobilisation giving maximum cell adhesion,normal human fibroblasts; normal human fibroblasts,5 micrograms
same,Dose dependence of adhesion of normal human fibroblasts,"normal human fibroblasts; peptide immobilised at a range of concentrations, FIG. 14C",induces adhesion of normal human fibroblasts in a dose dependent manner
same,Effect on HT1080 cell adhesion to the immobilised LG4/5 fragment,HT1080 cells; LG4/5 substrate 1 μg/well,completely blocked cell adhesion to the LG4/5 fragment
same,Effect on HT1080 cell adhesion to LN332,HT1080 cells; LN332 substrate 1 μg/well,did not affect adhesion to LN332
same,Mean quantity of peptide placed in the wells for immobilisation giving maximum cell adhesion,"[2]; normal human keratinocytes, quantity placed, not actually immobilised",10 micrograms
same,Adhesion of normal human keratinocytes to the immobilised peptide,"[2]; peptide immobilised on 96-well plates, 6·10^4 cells/well, 37° C. for 1 hour",induces cell adhesion of HT1080 cells and normal human keratinocytes in a dose dependent manner
